Measurements reported in PubChem BioAssay AID652272 (Drosophila RNAi Screening Center, 2013).
The screen tested about 21,000 reagents; this is a random part of those with a known target gene and a result. Of all reagents, 503 (2.4%) were called active. 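Raw plate light values, not normalised; calls rest on replicate z-scores that were not deposited; hits include reporter decreases as well as increases.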 Unmarked entries are inactive. The record does not give: the amount of reagent, the time to read-out.

Aim: 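Genome-wide knock-down search for components of Hedgehog signalling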 (primary screen)
Cell system: Drosophila clone 8 (Cl8) cells
Reagents: long dsRNA against Drosophila genes
Measured: 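Plate reader light from a firefly reporter under a ptc promoter fragment that responds to Hedgehog, with Renilla light as transfection reference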
Direction: firefly Hh reporter signal: higher = more ptc reporter light; Renilla reference signal: higher = more Renilla control light
Call rule: 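Hit when the z-score averaged over two replicates is under -2 or over +3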
Meaning of the calls: active = hit: reporter lowered or raised; inactive = not a hit

Depletion of CG17298 (GeneID 42529) [DRSC15221] gave: firefly Hh reporter signal, replicate 1 = 8.15e5; firefly Hh reporter signal, replicate 2 = 1.88e5; Renilla reference signal, replicate 1 = 42258; Renilla reference signal, replicate 2 = 3203. Silencing of c(2)M (GeneID 34964) [DRSC01922] came out at: firefly Hh reporter signal, replicate 1 = 1.03e5; firefly Hh reporter signal, replicate 2 = 80157; Renilla reference signal, replicate 1 = 3907; Renilla reference signal, replicate 2 = 3201. Ald1 (GeneID 43183) [DRSC14109] showed firefly Hh reporter signal, replicate 1 = 82995; firefly Hh reporter signal, replicate 2 = 89804; Renilla reference signal, replicate 1 = 1840; Renilla reference signal, replicate 2 = 2311. Silencing of IntS1 (GeneID 37840) [DRSC04343] resulted in: firefly Hh reporter signal, replicate 1 = 1.12e5; firefly Hh reporter signal, replicate 2 = 46631; Renilla reference signal, replicate 1 = 4870; Renilla reference signal, replicate 2 = 1831. After knock-down of Tbc1d22 (GeneID 42498) [DRSC15867], the record shows firefly Hh reporter signal, replicate 1 = 1.11e5; firefly Hh reporter signal, replicate 2 = 89885; Renilla reference signal, replicate 1 = 4176; Renilla reference signal, replicate 2 = 3175. nemy (GeneID 36395) [DRSC05357] gave firefly Hh reporter signal, replicate 1 = 1.17e5; firefly Hh reporter signal, replicate 2 = 2.51e5; Renilla reference signal, replicate 1 = 3804; Renilla reference signal, replicate 2 = 10180.

Silencing of nemy (GeneID 36395) [DRSC07262] resulted in: firefly Hh reporter signal, replicate 1 = 1.50e5; firefly Hh reporter signal, replicate 2 = 6.20e5; firefly Hh reporter signal, replicate 3 = 1.23e5; Renilla reference signal, replicate 1 = 4451; Renilla reference signal, replicate 2 = 35484. CG13955 (GeneID 35968) [DRSC06443] scored firefly Hh reporter signal, replicate 1 = 1.60e5; firefly Hh reporter signal, replicate 2 = 1.09e5; Renilla reference signal, replicate 1 = 3952; Renilla reference signal, replicate 2 = 7600. Against frj (GeneID 33900) [DRSC03250], the entry reads firefly Hh reporter signal, replicate 1 = 36267; firefly Hh reporter signal, replicate 2 = 64476; Renilla reference signal, replicate 1 = 2288; Renilla reference signal, replicate 2 = 3002. Silencing of Task7 (GeneID 41125) [DRSC16477] gave: firefly Hh reporter signal, replicate 1 = 57276; firefly Hh reporter signal, replicate 2 = 1.18e5; Renilla reference signal, replicate 1 = 2016; Renilla reference signal, replicate 2 = 2897. For CG14370 (GeneID 41659) [DRSC14832], the values are firefly Hh reporter signal, replicate 1 = 68987; firefly Hh reporter signal, replicate 2 = 82784; Renilla reference signal, replicate 1 = 2327; Renilla reference signal, replicate 2 = 2224. Rpn6 (GeneID 36638) [DRSC07541] showed firefly Hh reporter signal, replicate 1 = 19667 (active); firefly Hh reporter signal, replicate 2 = 19520; Renilla reference signal, replicate 1 = 2123; Renilla reference signal, replicate 2 = 2161.

CG3368 (GeneID 43292) [DRSC15485] showed firefly Hh reporter signal, replicate 1 = 97813; firefly Hh reporter signal, replicate 2 = 73676; Renilla reference signal, replicate 1 = 2468; Renilla reference signal, replicate 2 = 2011.

Limited to “Renilla reference signal, replicate 1” (3 entries from above):
CG14370 (GeneID 41659) [DRSC14832]	2327
Rpn6 (GeneID 36638) [DRSC07541]	2123 (active)
CG3368 (GeneID 43292) [DRSC15485]	2468

Continued.
After knock-down of Skp2 (GeneID 40548) [DRSC12329], the record shows firefly Hh reporter signal, replicate 1 = 1.29e5; firefly Hh reporter signal, replicate 2 = 1.27e5; Renilla reference signal, replicate 1 = 5333; Renilla reference signal, replicate 2 = 4459. With knock-down of CG43737 (GeneID 32448) [DRSC19609], the screen gave firefly Hh reporter signal, replicate 1 = 89777; firefly Hh reporter signal, replicate 2 = 2.28e5; Renilla reference signal, replicate 1 = 3235; Renilla reference signal, replicate 2 = 8140. Against CG43737 (GeneID 32448) [DRSC19610], the entry reads firefly Hh reporter signal, replicate 1 = 84944; firefly Hh reporter signal, replicate 2 = 2.67e5; Renilla reference signal, replicate 1 = 3239; Renilla reference signal, replicate 2 = 9780. Depletion of CG4820 (GeneID 41344) [DRSC15654] came out at: firefly Hh reporter signal, replicate 1 = 70857; firefly Hh reporter signal, replicate 2 = 1.28e5; Renilla reference signal, replicate 1 = 2432; Renilla reference signal, replicate 2 = 3581. Against NC2beta (GeneID 34875) [DRSC01895] the deposit lists firefly Hh reporter signal, replicate 1 = 93980; firefly Hh reporter signal, replicate 2 = 1.05e5; Renilla reference signal, replicate 1 = 4969; Renilla reference signal, replicate 2 = 4549. Against salt (GeneID 43742) [DRSC15427], the values are firefly Hh reporter signal, replicate 1 = 1.22e5; firefly Hh reporter signal, replicate 2 = 76115; Renilla reference signal, replicate 1 = 2739; Renilla reference signal, replicate 2 = 2811.

After knock-down of CG31262 (GeneID 318649) [DRSC13216] the results were firefly Hh reporter signal, replicate 1 = 39731; firefly Hh reporter signal, replicate 2 = 2.70e5; Renilla reference signal, replicate 1 = 793; Renilla reference signal, replicate 2 = 4972. After knock-down of CG9449 (GeneID 40117) [DRSC11073], the record shows firefly Hh reporter signal, replicate 1 = 1.04e5; firefly Hh reporter signal, replicate 2 = 86435; Renilla reference signal, replicate 1 = 3228; Renilla reference signal, replicate 2 = 2024.
